Measured values from the supplement of paper PMC6411743.
± gives the standard deviation of the averaged measurements. Some of the results follow.

Protein sequences, listed by entry. Tags and fused reporters are not part of them. Lines headed by an entry give the natural chain unless they say otherwise; changes in a name come on top.
UniProt Q96JJ3: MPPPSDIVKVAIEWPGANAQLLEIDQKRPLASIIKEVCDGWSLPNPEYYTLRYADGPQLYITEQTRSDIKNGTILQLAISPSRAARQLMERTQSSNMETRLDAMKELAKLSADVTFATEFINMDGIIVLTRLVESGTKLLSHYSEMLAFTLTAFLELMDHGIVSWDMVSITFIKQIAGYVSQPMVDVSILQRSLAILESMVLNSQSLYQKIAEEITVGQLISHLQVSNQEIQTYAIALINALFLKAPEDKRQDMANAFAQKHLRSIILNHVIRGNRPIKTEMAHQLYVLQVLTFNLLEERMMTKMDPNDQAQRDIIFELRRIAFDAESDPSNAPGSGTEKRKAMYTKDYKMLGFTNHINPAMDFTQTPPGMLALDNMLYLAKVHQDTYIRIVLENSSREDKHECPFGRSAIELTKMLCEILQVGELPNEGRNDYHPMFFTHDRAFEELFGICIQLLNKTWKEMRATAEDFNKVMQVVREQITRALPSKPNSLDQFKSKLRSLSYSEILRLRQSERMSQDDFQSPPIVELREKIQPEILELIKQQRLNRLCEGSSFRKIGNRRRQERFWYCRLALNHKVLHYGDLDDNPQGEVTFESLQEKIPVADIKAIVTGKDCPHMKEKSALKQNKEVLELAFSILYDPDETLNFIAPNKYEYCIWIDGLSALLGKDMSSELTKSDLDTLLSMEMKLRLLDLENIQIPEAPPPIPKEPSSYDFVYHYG
UniProt Q17R31: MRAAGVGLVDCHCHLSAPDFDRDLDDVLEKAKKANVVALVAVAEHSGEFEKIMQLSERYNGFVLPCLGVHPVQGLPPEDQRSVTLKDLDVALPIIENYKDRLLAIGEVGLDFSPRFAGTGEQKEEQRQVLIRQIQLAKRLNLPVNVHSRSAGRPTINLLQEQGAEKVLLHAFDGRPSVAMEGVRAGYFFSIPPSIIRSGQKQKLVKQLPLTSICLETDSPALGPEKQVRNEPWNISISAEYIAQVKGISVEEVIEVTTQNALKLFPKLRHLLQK
UniProt Q15643: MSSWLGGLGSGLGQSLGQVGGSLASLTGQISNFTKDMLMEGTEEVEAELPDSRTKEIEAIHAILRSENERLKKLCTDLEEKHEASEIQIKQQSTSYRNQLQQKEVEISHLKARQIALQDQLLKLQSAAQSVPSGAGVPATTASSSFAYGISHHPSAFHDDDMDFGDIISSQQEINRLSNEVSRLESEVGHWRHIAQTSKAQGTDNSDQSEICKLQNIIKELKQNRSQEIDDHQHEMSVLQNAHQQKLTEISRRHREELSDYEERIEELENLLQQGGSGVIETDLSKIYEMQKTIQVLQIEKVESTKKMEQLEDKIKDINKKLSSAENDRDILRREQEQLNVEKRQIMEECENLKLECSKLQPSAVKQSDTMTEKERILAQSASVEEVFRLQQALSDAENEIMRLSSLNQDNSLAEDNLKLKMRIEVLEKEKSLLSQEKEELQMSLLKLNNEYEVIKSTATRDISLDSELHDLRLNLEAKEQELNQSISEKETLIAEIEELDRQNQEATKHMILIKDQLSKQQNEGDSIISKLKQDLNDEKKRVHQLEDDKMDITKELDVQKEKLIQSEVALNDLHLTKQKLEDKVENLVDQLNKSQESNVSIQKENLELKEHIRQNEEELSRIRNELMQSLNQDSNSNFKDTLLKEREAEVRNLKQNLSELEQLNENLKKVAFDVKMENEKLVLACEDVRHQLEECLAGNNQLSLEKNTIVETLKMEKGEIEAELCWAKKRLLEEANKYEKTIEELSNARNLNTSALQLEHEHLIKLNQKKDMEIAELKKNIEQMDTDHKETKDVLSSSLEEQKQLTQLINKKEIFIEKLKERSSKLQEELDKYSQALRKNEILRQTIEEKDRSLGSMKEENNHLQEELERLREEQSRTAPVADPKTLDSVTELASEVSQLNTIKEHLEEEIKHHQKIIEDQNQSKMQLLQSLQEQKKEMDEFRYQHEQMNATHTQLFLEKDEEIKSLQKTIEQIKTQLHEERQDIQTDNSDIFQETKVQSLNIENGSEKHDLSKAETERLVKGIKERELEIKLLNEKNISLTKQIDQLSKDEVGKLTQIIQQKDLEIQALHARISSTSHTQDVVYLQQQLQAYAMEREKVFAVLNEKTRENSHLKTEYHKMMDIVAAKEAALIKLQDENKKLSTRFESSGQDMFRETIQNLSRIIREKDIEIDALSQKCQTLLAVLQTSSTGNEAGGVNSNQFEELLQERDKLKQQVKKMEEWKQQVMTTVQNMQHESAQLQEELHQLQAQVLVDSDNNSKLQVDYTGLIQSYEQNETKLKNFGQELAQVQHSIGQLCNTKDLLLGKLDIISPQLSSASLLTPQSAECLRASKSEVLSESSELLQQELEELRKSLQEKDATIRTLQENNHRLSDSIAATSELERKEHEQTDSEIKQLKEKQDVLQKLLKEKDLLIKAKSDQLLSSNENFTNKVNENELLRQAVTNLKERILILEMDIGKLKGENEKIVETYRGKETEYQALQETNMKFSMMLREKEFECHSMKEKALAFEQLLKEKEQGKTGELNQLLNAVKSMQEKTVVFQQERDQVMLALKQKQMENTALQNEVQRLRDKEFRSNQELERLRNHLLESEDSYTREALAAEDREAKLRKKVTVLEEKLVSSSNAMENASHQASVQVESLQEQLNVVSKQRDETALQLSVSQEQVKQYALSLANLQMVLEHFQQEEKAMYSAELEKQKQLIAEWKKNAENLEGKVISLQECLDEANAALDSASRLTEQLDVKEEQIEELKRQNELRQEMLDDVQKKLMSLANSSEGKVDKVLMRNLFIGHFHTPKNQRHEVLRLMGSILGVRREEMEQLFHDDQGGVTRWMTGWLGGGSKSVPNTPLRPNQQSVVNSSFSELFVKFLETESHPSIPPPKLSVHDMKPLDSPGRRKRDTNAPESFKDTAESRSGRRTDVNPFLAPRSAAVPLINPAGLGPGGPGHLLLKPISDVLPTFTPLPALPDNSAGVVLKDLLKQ
UniProt Q16644, whole entry, looked up: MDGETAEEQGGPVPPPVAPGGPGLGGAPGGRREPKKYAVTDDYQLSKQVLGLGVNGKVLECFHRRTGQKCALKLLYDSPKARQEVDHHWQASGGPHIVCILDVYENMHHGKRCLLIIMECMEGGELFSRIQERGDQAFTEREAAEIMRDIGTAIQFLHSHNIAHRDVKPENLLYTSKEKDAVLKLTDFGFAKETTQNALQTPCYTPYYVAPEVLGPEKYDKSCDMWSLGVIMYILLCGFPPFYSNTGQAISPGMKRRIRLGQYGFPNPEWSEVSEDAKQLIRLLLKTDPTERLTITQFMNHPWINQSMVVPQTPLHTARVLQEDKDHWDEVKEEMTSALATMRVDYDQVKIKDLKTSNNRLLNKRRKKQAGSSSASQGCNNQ
UniProt Q53EL6: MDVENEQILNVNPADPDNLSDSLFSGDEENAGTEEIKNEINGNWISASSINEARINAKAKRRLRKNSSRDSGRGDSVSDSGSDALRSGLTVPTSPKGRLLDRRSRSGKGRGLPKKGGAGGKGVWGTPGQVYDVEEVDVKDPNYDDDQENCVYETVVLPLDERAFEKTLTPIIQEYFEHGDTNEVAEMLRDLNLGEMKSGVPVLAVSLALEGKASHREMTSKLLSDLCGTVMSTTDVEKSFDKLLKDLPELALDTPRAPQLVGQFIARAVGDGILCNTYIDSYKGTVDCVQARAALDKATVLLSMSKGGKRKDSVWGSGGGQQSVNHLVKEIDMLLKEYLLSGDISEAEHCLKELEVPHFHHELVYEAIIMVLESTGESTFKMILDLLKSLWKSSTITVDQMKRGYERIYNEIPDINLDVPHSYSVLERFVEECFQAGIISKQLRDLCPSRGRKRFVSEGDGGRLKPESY
UniProt Q5JTJ3: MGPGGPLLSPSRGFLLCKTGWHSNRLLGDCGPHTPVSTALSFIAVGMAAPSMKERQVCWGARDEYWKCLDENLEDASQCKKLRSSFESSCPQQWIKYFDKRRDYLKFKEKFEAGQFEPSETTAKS
UniProt Q16539, whole entry: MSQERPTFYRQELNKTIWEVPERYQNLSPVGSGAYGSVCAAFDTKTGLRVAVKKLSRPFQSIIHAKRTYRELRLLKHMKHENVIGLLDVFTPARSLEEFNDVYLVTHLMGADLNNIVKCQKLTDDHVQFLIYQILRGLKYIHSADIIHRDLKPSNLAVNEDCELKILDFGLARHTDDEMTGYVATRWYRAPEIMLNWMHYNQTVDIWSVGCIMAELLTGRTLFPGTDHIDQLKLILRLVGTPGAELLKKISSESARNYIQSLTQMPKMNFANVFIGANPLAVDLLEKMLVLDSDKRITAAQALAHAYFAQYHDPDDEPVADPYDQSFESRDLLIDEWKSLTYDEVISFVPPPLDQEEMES
UniProt Q15388, whole entry: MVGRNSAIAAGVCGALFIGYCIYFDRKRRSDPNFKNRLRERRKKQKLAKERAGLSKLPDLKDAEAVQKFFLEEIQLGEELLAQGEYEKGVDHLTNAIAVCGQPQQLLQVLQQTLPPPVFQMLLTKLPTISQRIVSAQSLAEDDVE
UniProt Q15007: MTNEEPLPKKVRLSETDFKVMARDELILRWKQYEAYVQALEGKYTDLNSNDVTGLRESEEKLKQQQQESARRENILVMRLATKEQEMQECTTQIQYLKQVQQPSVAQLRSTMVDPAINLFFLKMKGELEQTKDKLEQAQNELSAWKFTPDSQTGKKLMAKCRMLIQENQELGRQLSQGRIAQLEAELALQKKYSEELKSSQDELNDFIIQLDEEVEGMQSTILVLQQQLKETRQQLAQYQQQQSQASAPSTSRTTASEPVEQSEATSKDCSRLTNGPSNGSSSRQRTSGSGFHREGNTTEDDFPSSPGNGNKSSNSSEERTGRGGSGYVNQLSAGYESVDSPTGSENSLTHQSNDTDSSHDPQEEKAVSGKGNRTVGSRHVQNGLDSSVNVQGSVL
UniProt Q504Q3: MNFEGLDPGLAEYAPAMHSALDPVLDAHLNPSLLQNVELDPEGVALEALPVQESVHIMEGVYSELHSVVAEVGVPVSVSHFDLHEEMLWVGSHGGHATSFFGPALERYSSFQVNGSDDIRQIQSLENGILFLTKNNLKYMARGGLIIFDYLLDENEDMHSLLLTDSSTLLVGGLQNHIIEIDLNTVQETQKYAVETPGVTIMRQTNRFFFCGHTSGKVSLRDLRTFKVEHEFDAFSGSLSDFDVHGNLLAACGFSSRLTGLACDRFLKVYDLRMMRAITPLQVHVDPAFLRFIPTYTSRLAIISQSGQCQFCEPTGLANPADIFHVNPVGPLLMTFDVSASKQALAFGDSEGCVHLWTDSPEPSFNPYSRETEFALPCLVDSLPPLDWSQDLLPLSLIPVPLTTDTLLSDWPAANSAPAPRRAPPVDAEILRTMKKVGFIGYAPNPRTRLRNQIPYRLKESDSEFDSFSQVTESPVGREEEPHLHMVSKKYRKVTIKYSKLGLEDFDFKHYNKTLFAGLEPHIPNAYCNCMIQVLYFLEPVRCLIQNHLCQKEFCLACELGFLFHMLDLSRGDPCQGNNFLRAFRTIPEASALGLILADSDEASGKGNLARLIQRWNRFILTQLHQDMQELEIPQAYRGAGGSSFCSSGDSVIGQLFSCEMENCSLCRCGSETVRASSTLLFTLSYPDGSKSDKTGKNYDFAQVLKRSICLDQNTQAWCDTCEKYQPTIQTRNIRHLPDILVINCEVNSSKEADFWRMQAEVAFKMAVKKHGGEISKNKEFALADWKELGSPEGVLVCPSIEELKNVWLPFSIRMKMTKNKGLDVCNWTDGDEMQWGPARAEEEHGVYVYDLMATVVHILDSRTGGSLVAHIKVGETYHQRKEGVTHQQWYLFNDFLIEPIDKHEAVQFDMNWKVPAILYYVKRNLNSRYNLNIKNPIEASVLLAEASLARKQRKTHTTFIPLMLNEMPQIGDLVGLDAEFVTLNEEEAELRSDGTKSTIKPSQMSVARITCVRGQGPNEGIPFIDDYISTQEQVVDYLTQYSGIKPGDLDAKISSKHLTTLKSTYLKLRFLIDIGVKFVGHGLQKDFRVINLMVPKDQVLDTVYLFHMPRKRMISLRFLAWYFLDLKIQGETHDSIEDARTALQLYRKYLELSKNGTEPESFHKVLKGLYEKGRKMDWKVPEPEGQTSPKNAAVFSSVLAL
UniProt Q15750: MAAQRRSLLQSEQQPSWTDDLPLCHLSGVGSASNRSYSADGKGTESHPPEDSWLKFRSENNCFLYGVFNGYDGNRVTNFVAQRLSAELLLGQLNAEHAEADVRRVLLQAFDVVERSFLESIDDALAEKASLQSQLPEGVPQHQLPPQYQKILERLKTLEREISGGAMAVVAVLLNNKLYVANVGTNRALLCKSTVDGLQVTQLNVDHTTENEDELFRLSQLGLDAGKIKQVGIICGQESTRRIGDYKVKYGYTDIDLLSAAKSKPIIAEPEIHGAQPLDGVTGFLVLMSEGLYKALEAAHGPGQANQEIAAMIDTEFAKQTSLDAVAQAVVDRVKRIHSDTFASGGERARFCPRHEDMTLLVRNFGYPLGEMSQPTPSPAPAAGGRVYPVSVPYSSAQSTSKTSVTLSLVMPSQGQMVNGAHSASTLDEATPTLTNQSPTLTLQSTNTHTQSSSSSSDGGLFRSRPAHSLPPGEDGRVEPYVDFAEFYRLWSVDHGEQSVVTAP

Compound: Nc1nc2c(ncn2[C@@H]2O[C@H](COP(=O)(O)OP(=O)(O)OP(=O)(O)O)[C@@H](O)[C@H]2O)c(=O)[nH]1 [guanosine triphosphate]
Experiment: NP40-soluble protein abundance relative to vehicle (solubility fold change) (ratio); higher = more soluble protein in presence of GTP
Method in brief: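 Across three independent experiments, values are fold changes against the detergent-processed vehicle for each replicate, based on vsn-normalised intensities. The samples were Jurkat crude lysate treated with eight concentrations (0.1 to 10 mM) for 10 min at room temperature and then 3 min at 37 °C. Lysate was solubilised with 0.8% NP40 and benzonase, ultracentrifuged, and the supernatant analysed by TMT-labelled LC-MS/MS.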

Target	NP40-soluble protein abundance (concentration: 0.1mM)	NP40-soluble protein abundance (concentration: 0.5mM)	NP40-soluble protein abundance (concentration: 1mM)	NP40-soluble protein abundance (concentration: 2mM)	NP40-soluble protein abundance (concentration: 4mM)	NP40-soluble protein abundance (concentration: 6mM)	NP40-soluble protein abundance (concentration: 8mM)	NP40-soluble protein abundance (concentration: 10mM)
Q5JVZ5 and related entries (UniProt Q96JJ3)	1.01 ± 0.012	1.043 ± 0.0096	1.027 ± 0.0054	1.03 ± 0.015	0.981 ± 0.037	0.998 ± 0.01	0.982 ± 0.034	0.946 ± 0.04
NOM1 (UniProt Q5C9Z4)	0.988 ± 0.088	0.987 ± 0.1	1.05 ± 0.069	1.09 ± 0.11	1.13 ± 0.12	1.18 ± 0.093	1.24 ± 0.11	1.27 ± 0.14
PDCD11 (UniProt Q14690)	1.08 ± 0.071	1.03 ± 0.058	1.05 ± 0.021	1.12 ± 0.052	1.26 ± 0.068	1.35 ± 0.058	1.53 ± 0.093	1.63 ± 0.1
UniProt Q17R31 and related entries	0.987 ± 0.038	0.976 ± 0.038	1.02 ± 0.046	1.01 ± 0.02	0.991 ± 0.068	1 ± 0.058	1 ± 0.054	0.973 ± 0.085
MAPRE1 (UniProt Q15691)	0.848 ± 0.025	0.834 ± 0.023	0.946 ± 0.043	0.932 ± 0.017	0.88 ± 0.021	0.922 ± 0.046	0.87 ± 0.056	0.949 ± 0.034
TRIP11 (UniProt Q15643)	0.995 ± 0.022	0.972 ± 0.052	0.994 ± 0.059	0.973 ± 0.081	0.972 ± 0.082	0.955 ± 0.061	0.995 ± 0.019	0.978 ± 0.062
UniProt Q27J81-2|Q27J81	1.02 ± 0.026	0.99 ± 0.013	1 ± 0.033	0.987 ± 0.03	0.988 ± 0.058	0.975 ± 0.013	1.007 ± 0.0058	0.972 ± 0.038
UniProt Q15633 and related entries	1.03 ± 0.023	0.983 ± 0.043	1.059 ± 0.0034	1.08 ± 0.03	1.06 ± 0.034	1.06 ± 0.03	1.09 ± 0.033	1.11 ± 0.042
UniProt Q15057 and related entries	0.995 ± 0.038	1.02 ± 0.043	0.929 ± 0.032	0.941 ± 0.048	0.896 ± 0.054	0.91 ± 0.027	0.881 ± 0.02	0.907 ± 0.043
MAPKAPK3 (UniProt Q16644)	0.971 ± 0.087	0.964 ± 0.065	0.935 ± 0.1	0.894 ± 0.11	0.875 ± 0.089	0.874 ± 0.088	0.887 ± 0.082	0.881 ± 0.096
UniProt Q16774 and related entries	0.8938 ± 0.0022	0.885 ± 0.04	0.947 ± 0.041	0.93 ± 0.072	0.863 ± 0.062	0.902 ± 0.089	0.839 ± 0.098	0.875 ± 0.088
SEC23B (UniProt Q15437)	1.07 ± 0.046	1.08 ± 0.055	0.943 ± 0.042	0.988 ± 0.085	0.97 ± 0.073	0.955 ± 0.055	0.925 ± 0.036	0.906 ± 0.088
ZC3H13 (UniProt Q5T200)	1.01 ± 0.055	1.02 ± 0.063	1.07 ± 0.054	1.08 ± 0.063	1.12 ± 0.059	1.12 ± 0.055	1.24 ± 0.099	1.18 ± 0.1
UniProt Q15286	1.04 ± 0.048	1.045 ± 0.0073	0.959 ± 0.038	0.933 ± 0.036	0.967 ± 0.034	0.939 ± 0.052	0.938 ± 0.026	0.892 ± 0.059
UniProt Q16643 and related entries	0.894 ± 0.061	0.888 ± 0.11	0.903 ± 0.11	0.905 ± 0.11	1.08 ± 0.1	1.24 ± 0.11	1.52 ± 0.15	1.81 ± 0.12
RSU1 (UniProt Q15404)	0.937 ± 0.047	0.941 ± 0.027	0.97 ± 0.013	0.941 ± 0.024	0.915 ± 0.031	0.932 ± 0.02	0.882 ± 0.04	0.925 ± 0.01
UniProt Q53EL6 and related entries	0.992 ± 0.14	1.08 ± 0.18	1.12 ± 0.24	1.23 ± 0.34	1.45 ± 0.45	1.66 ± 0.47	1.81 ± 0.48	2.16 ± 0.58
UniProt Q15042	1.1 ± 0.047	1.03 ± 0.048	1.05 ± 0.026	1.04 ± 0.031	1.04 ± 0.055	1 ± 0.025	1.02 ± 0.042	0.96 ± 0.021
UniProt Q5JTJ3 and related entries	0.93 ± 0.04	0.986 ± 0.089	1.03 ± 0.098	0.988 ± 0.15	0.96 ± 0.083	0.977 ± 0.11	1 ± 0.054	1.13 ± 0.094
UniProt Q16539 and related entries	0.9976 ± 0.0083	1.04 ± 0.012	0.971 ± 0.014	0.979 ± 0.057	0.946 ± 0.044	0.944 ± 0.03	0.921 ± 0.02	0.895 ± 0.057
TOMM20 (UniProt Q15388)	0.781 ± 0.08	0.742 ± 0.068	0.974 ± 0.11	0.959 ± 0.047	0.974 ± 0.067	0.985 ± 0.039	0.804 ± 0.23	1 ± 0.18
UniProt Q3ZCQ8 and related entries	0.965 ± 0.02	0.962 ± 0.058	0.945 ± 0.014	0.911 ± 0.052	0.911 ± 0.047	0.915 ± 0.048	0.913 ± 0.0096	0.902 ± 0.067
UniProt Q14C86 and related entries	0.984 ± 0.049	0.977 ± 0.053	0.939 ± 0.035	0.915 ± 0.026	0.927 ± 0.025	0.907 ± 0.032	0.911 ± 0.036	0.887 ± 0.024
WTAP (UniProt Q15007)	1.02 ± 0.016	1.05 ± 0.028	1.13 ± 0.033	1.13 ± 0.064	1.08 ± 0.14	1.14 ± 0.094	1.19 ± 0.034	1.25 ± 0.14
UniProt Q504Q3 and related entries	1.1 ± 0.05	1.06 ± 0.059	1.03 ± 0.031	1.04 ± 0.052	1.06 ± 0.078	0.981 ± 0.066	0.991 ± 0.11	0.936 ± 0.087
WDR43 (UniProt Q15061)	1.03 ± 0.017	1.04 ± 0.059	1.05 ± 0.018	1.16 ± 0.051	1.34 ± 0.083	1.46 ± 0.12	1.58 ± 0.058	1.73 ± 0.088
UniProt Q32MZ4 and related entries	0.933 ± 0.06	0.955 ± 0.098	0.981 ± 0.061	0.962 ± 0.11	0.922 ± 0.061	0.959 ± 0.083	0.981 ± 0.061	1 ± 0.073
UniProt Q16513 and related entries	1.05 ± 0.039	1.013 ± 0.0083	0.96 ± 0.071	0.942 ± 0.046	0.936 ± 0.07	0.949 ± 0.07	0.96 ± 0.029	0.903 ± 0.096
UniProt Q15796 and related entries	0.962 ± 0.031	0.925 ± 0.054	0.906 ± 0.051	0.876 ± 0.034	0.857 ± 0.028	0.879 ± 0.056	0.901 ± 0.054	0.862 ± 0.029
UniProt Q15750 and related entries	0.94 ± 0.1	0.963 ± 0.1	0.892 ± 0.081	0.949 ± 0.045	0.894 ± 0.064	0.89 ± 0.046	0.877 ± 0.099	0.929 ± 0.095

Given field by field: entries from further up.
UniProt Q15057 and related entries
  NP40-soluble protein abundance (concentration: 0.1mM): 0.995 ± 0.038; NP40-soluble protein abundance (concentration: 0.5mM): 1.02 ± 0.043; NP40-soluble protein abundance (concentration: 1mM): 0.929 ± 0.032; NP40-soluble protein abundance (concentration: 2mM): 0.941 ± 0.048; NP40-soluble protein abundance (concentration: 4mM): 0.896 ± 0.054; NP40-soluble protein abundance (concentration: 6mM): 0.91 ± 0.027; NP40-soluble protein abundance (concentration: 8mM): 0.881 ± 0.02; NP40-soluble protein abundance (concentration: 10mM): 0.907 ± 0.043
MAPKAPK3 (UniProt Q16644)
  NP40-soluble protein abundance (concentration: 0.1mM): 0.971 ± 0.087; NP40-soluble protein abundance (concentration: 0.5mM): 0.964 ± 0.065; NP40-soluble protein abundance (concentration: 1mM): 0.935 ± 0.1; NP40-soluble protein abundance (concentration: 2mM): 0.894 ± 0.11; NP40-soluble protein abundance (concentration: 4mM): 0.875 ± 0.089; NP40-soluble protein abundance (concentration: 6mM): 0.874 ± 0.088; NP40-soluble protein abundance (concentration: 8mM): 0.887 ± 0.082; NP40-soluble protein abundance (concentration: 10mM): 0.881 ± 0.096
